Binding data for one substance are collected here from article PMC10364419.

Sequences of proteins named here, by UniProt entry; tags and fusion partners are left off.
UniProt O00165: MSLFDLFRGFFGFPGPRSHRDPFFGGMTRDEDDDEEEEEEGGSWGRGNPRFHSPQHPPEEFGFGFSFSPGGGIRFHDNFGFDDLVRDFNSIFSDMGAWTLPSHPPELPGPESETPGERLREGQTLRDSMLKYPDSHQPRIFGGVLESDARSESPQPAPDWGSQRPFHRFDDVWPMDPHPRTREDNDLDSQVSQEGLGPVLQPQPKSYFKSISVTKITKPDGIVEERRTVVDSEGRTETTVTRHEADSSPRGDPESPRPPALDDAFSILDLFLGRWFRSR
UniProt P46940: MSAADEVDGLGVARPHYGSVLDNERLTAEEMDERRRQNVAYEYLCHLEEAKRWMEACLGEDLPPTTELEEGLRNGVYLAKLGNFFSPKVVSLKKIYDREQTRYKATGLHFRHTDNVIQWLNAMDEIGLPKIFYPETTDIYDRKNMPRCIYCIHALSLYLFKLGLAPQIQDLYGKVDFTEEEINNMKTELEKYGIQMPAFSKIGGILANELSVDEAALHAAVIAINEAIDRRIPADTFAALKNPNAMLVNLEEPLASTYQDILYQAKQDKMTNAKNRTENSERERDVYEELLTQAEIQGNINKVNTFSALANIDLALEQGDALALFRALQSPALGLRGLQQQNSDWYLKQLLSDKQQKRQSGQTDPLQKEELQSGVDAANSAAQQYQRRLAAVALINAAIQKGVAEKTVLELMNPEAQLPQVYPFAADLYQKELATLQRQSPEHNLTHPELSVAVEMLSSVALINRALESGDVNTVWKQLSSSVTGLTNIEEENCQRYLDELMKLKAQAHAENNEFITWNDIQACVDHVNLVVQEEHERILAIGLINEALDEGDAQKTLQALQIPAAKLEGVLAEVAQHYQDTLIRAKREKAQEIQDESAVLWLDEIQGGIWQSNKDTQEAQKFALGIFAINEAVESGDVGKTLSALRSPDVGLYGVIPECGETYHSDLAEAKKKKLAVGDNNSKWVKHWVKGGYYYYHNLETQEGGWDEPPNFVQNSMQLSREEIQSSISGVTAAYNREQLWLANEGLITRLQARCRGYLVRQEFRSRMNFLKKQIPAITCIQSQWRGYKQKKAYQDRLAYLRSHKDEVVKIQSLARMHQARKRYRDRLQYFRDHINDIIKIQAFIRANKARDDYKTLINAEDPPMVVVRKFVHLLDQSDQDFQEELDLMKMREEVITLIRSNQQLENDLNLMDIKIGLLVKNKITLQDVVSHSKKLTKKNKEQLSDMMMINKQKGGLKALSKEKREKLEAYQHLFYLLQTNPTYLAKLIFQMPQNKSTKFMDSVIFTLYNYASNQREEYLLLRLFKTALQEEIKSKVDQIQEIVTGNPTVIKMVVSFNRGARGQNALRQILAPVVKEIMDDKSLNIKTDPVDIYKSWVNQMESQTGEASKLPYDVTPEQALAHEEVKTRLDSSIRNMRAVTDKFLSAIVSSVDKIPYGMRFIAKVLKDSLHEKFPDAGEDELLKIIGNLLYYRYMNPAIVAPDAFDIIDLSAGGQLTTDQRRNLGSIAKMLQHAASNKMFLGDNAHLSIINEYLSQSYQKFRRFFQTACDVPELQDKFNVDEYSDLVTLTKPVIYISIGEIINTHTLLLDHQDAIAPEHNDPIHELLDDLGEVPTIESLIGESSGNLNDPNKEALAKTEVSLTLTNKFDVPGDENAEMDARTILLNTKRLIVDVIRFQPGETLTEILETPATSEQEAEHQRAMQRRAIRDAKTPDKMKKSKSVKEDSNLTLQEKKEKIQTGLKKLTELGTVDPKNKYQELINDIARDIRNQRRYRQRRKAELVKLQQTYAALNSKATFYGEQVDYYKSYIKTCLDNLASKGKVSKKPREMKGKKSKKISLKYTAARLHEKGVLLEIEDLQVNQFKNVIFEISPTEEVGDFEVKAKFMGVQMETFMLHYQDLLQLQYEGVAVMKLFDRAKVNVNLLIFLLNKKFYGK

This experiment concerns the target HA-Hax1 (UniProt O00165). The experiment can be described thus: affinity purification with mass spectrometry; anti-HA immunocomplexes from HA-Hax1-transfected HEK293T cells, resolved by SDS-PAGE, bands excised, LC-MS/MS.

No constants are given. Whether binding was seen depends on the method and setting. In cells and extracts the contact can be indirect. A yes stands for co-enrichment or nearness to the bait. Other partners may have been found.

Take “IQGAP1 (endogenous) (from UniProt P46940 1-1657)”: the binding entry is given as “binds”.
